Laboratory results as given in US20200283523A1.
These are yes or no findings as the source states them, for the method shown. Some results given as binding are weak or reduced against the parent protein; the word gives no strength.

The chains behind the UniProt entries cited, without tags or fusion partners. Where a name states a change or a piece, a line headed by the entry shows the natural chain unless it says otherwise. A line that says so, or that is headed by a name, gives the form on record, which may keep a tag or linker. Residues count along the entry.
FcγRIIa (H167) (P12318, residues 36-218): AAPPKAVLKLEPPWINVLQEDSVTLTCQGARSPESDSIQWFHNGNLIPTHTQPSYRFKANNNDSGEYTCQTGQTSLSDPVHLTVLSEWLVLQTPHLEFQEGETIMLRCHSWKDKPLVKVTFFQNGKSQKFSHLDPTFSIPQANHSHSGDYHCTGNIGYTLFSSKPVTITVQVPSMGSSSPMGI
FcγRIIa (R167) (P12318, form named): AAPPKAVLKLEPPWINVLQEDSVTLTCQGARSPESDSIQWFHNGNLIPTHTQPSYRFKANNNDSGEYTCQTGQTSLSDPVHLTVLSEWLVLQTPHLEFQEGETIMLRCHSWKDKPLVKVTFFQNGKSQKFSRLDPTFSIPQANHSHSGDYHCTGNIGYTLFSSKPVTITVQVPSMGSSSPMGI
FcγRIIIa (F176) (P08637, residues 17-208): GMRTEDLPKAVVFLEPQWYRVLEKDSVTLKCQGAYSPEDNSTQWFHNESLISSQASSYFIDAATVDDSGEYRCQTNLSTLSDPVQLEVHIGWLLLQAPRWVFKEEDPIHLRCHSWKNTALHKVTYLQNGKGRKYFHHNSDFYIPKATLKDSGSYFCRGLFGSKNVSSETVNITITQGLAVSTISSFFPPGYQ
FcγRIIIa (V176) (P08637, form named): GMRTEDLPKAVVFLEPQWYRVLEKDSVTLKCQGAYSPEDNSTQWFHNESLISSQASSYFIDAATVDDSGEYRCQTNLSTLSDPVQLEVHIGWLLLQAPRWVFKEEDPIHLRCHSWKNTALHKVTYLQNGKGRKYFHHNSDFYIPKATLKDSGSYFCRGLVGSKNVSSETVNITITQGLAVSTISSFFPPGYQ
UniProt O75015, residues 17-200: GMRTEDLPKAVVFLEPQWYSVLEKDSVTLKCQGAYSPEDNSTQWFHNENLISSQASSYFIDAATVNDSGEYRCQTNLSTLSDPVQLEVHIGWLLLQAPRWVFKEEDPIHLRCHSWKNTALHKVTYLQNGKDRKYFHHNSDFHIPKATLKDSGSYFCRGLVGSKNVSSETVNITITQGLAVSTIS
UniProt P12314, residues 16-288: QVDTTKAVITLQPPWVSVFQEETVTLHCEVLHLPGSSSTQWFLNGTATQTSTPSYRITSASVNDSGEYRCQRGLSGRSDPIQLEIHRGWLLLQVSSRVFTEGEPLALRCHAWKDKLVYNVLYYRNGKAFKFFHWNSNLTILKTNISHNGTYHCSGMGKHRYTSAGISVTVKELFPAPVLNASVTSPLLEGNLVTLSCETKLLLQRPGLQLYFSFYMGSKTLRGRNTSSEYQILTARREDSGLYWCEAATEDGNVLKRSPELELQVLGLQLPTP
UniProt P31994, residues 46-217: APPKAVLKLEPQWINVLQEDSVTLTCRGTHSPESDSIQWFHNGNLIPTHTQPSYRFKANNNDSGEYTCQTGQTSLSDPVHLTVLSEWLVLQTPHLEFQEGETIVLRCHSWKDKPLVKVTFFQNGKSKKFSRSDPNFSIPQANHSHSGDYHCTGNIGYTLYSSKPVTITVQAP
UniProt P15391, residues 20-556: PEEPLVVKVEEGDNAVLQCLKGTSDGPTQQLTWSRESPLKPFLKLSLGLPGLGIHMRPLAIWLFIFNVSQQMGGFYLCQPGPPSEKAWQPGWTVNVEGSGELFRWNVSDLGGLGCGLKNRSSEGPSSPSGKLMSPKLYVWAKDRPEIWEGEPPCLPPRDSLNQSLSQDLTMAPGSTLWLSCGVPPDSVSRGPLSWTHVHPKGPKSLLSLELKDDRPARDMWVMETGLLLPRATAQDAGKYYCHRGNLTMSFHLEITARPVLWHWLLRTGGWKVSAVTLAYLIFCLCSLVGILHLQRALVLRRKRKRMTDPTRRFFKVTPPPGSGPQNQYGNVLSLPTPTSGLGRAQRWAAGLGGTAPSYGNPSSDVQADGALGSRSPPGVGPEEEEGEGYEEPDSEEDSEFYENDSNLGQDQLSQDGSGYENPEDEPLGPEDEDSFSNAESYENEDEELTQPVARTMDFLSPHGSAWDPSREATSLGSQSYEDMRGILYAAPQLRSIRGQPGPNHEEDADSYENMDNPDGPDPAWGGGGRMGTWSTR

How the values were obtained:
[1] = target: cynomolgus CD19 (cynomolgus monkey); experiment: flow cytometry on cynomolgus CD19 expressing CHO-K1 cells, anti-human IgG Fc detection
[2] = target: FcγRIIa (R167) (UniProt P12318); experiment: SPR
[3] = target: FcγRIIIa (V176) (UniProt P08637); experiment: SPR
[4] = target: FcγRIIIb (UniProt O75015); experiment: SPR
[5] = target: FcγRIIIa (F176) (UniProt P08637); experiment: SPR
[6] = target: FcγRIIa (H167) (UniProt P12318); experiment: SPR
[7] = target: FcγRI (UniProt P12314); experiment: SPR
[8] = target: FcγRIIb (UniProt P31994); experiment: SPR
[9] = target: human CD19 (human) (UniProt P15391); experiment: flow cytometry on Ramos cells, PE anti-human IgG Fc detection
[10] = target: human CD19 (human) (UniProt P15391); experiment: flow cytometry on Ramos cells after incubation in human serum at 37° C.
[11] = target: human CD19 (human) (UniProt P15391); experiment: flow cytometry on Ramos cells after incubation of the antibody in human serum at 37 C for 0, 1, 4, 7 and 14 days
[12] = target: human CD19 (human) (UniProt P15391); experiment: flow cytometry affinity test on Ramos cells, Bound/Free against bound IgG
[13] = target: human CD19 (human) (UniProt P15391); experiment: flow cytometry bridging of pre-labelled Raji (CD19+) and Jurkat (CD3+) cells with 10 nM antibody

Measured: binding

B1: W3438-T3U4.E17-1.uIgG4.SP (bispecific antibody)
light 1: DIVMTQSPDSLAVSLGERATINCKSSQSLLNSRTRKNYLAWYQQKPGQPPKLLIYWASTRQSGVPDRFSGSGSGTDFTLTISSLQAEDVAVYYCTQSHTLRTFGGGTKVEIKPDIQNPDPAVYQLRDSKSSDKSVCLFTDFDSQTQVSQSKDSDVYITDKCVLDMRSMDFKSNSAVAWSQKSDFACANAFQNSIIPEDTFFPSPESS
heavy 1: QVQLVQSGAEVKKPGSSVKVSCKASGFAFTDYYIHWVRQAPGQGLEWMGWISPGNVNTKYNENFKGRVTITADKSTSTAYMELSSLRSEDTAVYYCARDGYSLYYFDYWGQGTLVTVLEDLKNVFPPEVAVFEPSEAEISHTQKATLVCLATGFYPDHVELSWWVNGKEVHSGVCTDPQPLKEQPALQDSRYALSSRLRVSATFWQNPRNHFRCQVQFYGLSENDEWTQDRAKPVTQIVSAEAWGRYGPPCPPCPAPEFLGGPSVFLFPPKPKDTLMISRTPEVTCVVVDVSQEDPEVQFNWYVDGVEVHNAKTKPREEQFNSTYRVVSVLTVLHQDWLNGKEYKCKVSNKGLPSSIEKTISKAKGQPREPQVYTLPPCQEEMTKNQVSLWCLVKGFYPSDIAVEWESNGQPENNYKTTPPVLDSDGSFFLYSRLTVDKSRWQEGNVFSCSVMHEALHNHYTQKSLSLSLGK
light 2: DIQLTQSPSFLSASVGDRVTITCSASSTVNYMHWYQQKPGKAPKLLIYSTSNLASGVPSRFSGSGSGTEFTLTISSLQPEDFATYYCHQWSSYPYTFGQGTKLEIKRTVAAPSVFIFPPSDEQLKSGTASVVCLLNNFYPREAKVQWKVDNALQSGNSQESVTEQDSKDSTYSLSSTLTLSKADYEKHKVYACEVTHQGLSSPVTKSFNRGEC
heavy 2: QMQLVQSGPEVKKPGTSVKVSCKASGYAFTSYNMYWVRQARGQRLEWIGYIDPYNGDTTYNQKFKGRVTITRDMSTSTAYMELSSLRSEDTAVYYCLTTAYAMDYWGQGTLVTVSSASTKGPSVFPLAPCSRSTSESTAALGCLVKDYFPEPVTVSWNSGALTSGVHTFPAVLQSSGLYSLSSVVTVPSSSLGTKTYTCNVDHKPSNTKVDKRVESKYGPPCPPCPAPEFLGGPSVFLFPPKPKDTLMISRTPEVTCVVVDVSQEDPEVQFNWYVDGVEVHNAKTKPREEQFNSTYRVVSVLTVLHQDWLNGKEYKCKVSNKGLPSSIEKTISKAKGQPREPQVCTLPPSQEEMTKNQVSLSCAVKGFYPSDIAVEWESNGQPENNYKTTPPVLDSDGSFFLVSRLTVDKSRWQEGNVFSCSVMHEALHNHYTQKSLSLSLGK
binds: [1] | [2] | [3] | [4] | [5] | [6] | [7] | [8] | [9] | [10] | [11] | [12] | [13]
